Binding signal data for 42 sequences are collected here from paper PMC7819943, “Rice protein-binding microarrays: a tool to detect cis-acting elements near promoter regions in rice”.

Amino acid sequences for entries named in this document (tags omitted).
UniProt Q0JBA9, entry or part of it: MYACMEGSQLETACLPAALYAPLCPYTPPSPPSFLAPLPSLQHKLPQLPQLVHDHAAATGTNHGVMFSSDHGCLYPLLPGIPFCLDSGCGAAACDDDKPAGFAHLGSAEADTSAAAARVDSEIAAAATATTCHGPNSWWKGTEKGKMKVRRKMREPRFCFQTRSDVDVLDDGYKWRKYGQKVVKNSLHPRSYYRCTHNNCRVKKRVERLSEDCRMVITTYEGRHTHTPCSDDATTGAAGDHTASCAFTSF

This is one part of the list.

In this test the target is OsWRKY34 (Oryza sativa, UniProt Q0JBA9 1-250). The experiment in a line: protein-binding microarray (RPBM); PBS, 2% BSA, 51.3 ng/ul salmon testes DNA, 50 uM zinc acetate, 200 nM TF, 25 C, 1 h; high values mean tight binding. The settings on record: protein: recombinant; tags: N-terminal polyhistidine and DsRed monomer fusion (pET32a); label: CyDye5-dUTP incorporated in the synthesized complementary strand; 3' TTTTT single-stranded linker to array surface; dsDNA, one strand shown. The essentials:
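Per-feature fluorescence intensity (arbitrary units), read on an Axon 4000B scanner, is the binding signal. Transcription factors carrying an N-terminal polyhistidine tag and DsRed fusion were expressed in E. coli BL21-CodonPlus and purified on Ni–NTA. A custom Agilent array, made double-stranded by primer extension with Cy5-dUTP and blocked with 2% BSA, was incubated with 200 nM protein in PBS, 2% BSA, salmon testes DNA and 50 µM zinc acetate at 25 °C for 1 h and then washed.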
In the case of “CCTTAATGTGGGCTGCACGCGAGCGTCTGTCCCCGTTCCGCGGAGTCACCTAGTGCAG”, the binding signal is 9870 fluorescence intensity (a.u.).

Regarding “TGTTATATCTCTATTTCTACTCTGTATAGCTAAATGCAACCGGAGTCACCTAGTGCAG”, the binding signal is 8190 fluorescence intensity (a.u.).

“TCACCGTTAACACCACTGTTGGCTGGCCGCACCTACCTCTCGGAGTCACCTAGTGCAG”: the binding signal is 11300 fluorescence intensity (a.u.).

On to “CCCTAGCTTAGCTTTGTCTTTCGTGTTGGCCTCGGCGCGCCGGAGTCACCTAGTGCAG”, for which the binding signal is 11100 fluorescence intensity (a.u.). In the case of “CACCACAAAGCTCTTCCACTGCAATCGCTGCCGGACTAGTCGGAGTCACCTAGTGCAG”, the binding signal is 9760 fluorescence intensity (a.u.). With “CCACTTCACTCCACTCCACATCACGCGGCCGCACTCCACTCGGAGTCACCTAGTGCAG”, the binding signal is 11200 fluorescence intensity (a.u.). As to “CATATCAGTGGTTAACTGTGCTGTCTCAGTTGATCTCCCGCGGAGTCACCTAGTGCAG”, the binding signal is 8360 fluorescence intensity (a.u.).

On to “GGAAGAAAGAGATAAGGGGCCTAACATGTGGGGTGGGTCACGGAGTCACCTAGTGCAG”, for which the binding signal is 10600 fluorescence intensity (a.u.). As for “CATCTTGTCACCGCCCTGAATGTTTGTGCTTAATTAATTACGGAGTCACCTAGTGCAG”, the binding signal was 9170 fluorescence intensity (a.u.). For the sequence “CTGTGTATATTCCCCTGACCATATCTCTCTATAAATAGCCCGGAGTCACCTAGTGCAG”, the binding signal was 9350 fluorescence intensity (a.u.).

“TCTCCGCCGTCCGTTCCCCTCTCTCTTCCTCGCCCTCGGCCGGAGTCACCTAGTGCAG”: the binding signal is 9150 fluorescence intensity (a.u.). Consider “CCGTCTCGTTGTCTCCTCCGCTCCTTGCGCCGCCGCCAAGCGGAGTCACCTAGTGCAG”, for which the binding signal is 8270 fluorescence intensity (a.u.). To “ATATTTGGTTTTTGGATTTTAGGGGTAATTCATACTCACCCGGAGTCACCTAGTGCAG” belongs 8740 fluorescence intensity (a.u.); to “AACAAGCGACTCCACTGTCTCTTTCCTTTCTCTTAGTATTCGGAGTCACCTAGTGCAG”, 10200 fluorescence intensity (a.u.). Turning to “CGTTGACTTTTTTAAATATATAATTATTAATTTTTTTTCTCGGAGTCACCTAGTGCAG”, the binding signal was 23900 fluorescence intensity (a.u.). In the case of “GTTGACAGTTTGACATGTGCTTGTAATTCTTTACCATTCTCGGAGTCACCTAGTGCAG”, the binding signal is 12800 fluorescence intensity (a.u.).

For the sequence “GGGTTAAAAGATATGCTAGGGGTATTTTGGTCCATATAAACGGAGTCACCTAGTGCAG”, the binding signal is 14900 fluorescence intensity (a.u.).

For “ATTGATGTTACTTATTTTTTATTTGTTATAACTATTTAATCGGAGTCACCTAGTGCAG”, the binding signal was 8520 fluorescence intensity (a.u.). “TTTGCCTTGTCGAATCGCCGCTGCACCACCGTTCCCAACCCGGAGTCACCTAGTGCAG”: the binding signal was 9580 fluorescence intensity (a.u.). Take “CAACGGACTTGACTTGTTTAGCCTTGTACTCCTTCATTATCGGAGTCACCTAGTGCAG”: the binding signal is 9020 fluorescence intensity (a.u.). On to “AAGATTCTTCTCTTCGTCGACGACCCGGCCTCTCGCTCTCCGGAGTCACCTAGTGCAG”, for which the binding signal is 9630 fluorescence intensity (a.u.). Turning to “CCCTTCTCTTCCTTCGCTAGAAGCCGCGCTCTGCTCTTCCCGGAGTCACCTAGTGCAG”, the binding signal is 8090 fluorescence intensity (a.u.). Regarding “TTTGGTAGTCATTTCAGGCATGTGATGCTTCTTGGGGAGGCGGAGTCACCTAGTGCAG”, the binding signal was 8930 fluorescence intensity (a.u.). To “ACCACACCCCACCCCAGGAATCGATTTTTTTGCGGACAGACGGAGTCACCTAGTGCAG” belongs 9910 fluorescence intensity (a.u.). For the sequence “AATTGACTTCCTTGACCAAAAACCTCTTCTCTGATCTCTCCGGAGTCACCTAGTGCAG”, the binding signal is 10800 fluorescence intensity (a.u.). Regarding “GTTTTCAAGTTTTCGCTATATATGTGATTTGCACCGTACACGGAGTCACCTAGTGCAG”, the binding signal was 10100 fluorescence intensity (a.u.).

Consider “GATCTTGATAACTCCTAATTTTTTTTATTACTTCACCATTCGGAGTCACCTAGTGCAG”, for which the binding signal was 9290 fluorescence intensity (a.u.).

As to “AGAATCCTTTGTTTTTGTTGTGACTTTCGAGGATGACTTTCGGAGTCACCTAGTGCAG”, the binding signal is 9230 fluorescence intensity (a.u.). As for “TTTGGTTAGGTTAGGTAGTACTGAAATCTTATGCGTAACACGGAGTCACCTAGTGCAG”, the binding signal was 9160 fluorescence intensity (a.u.). For the sequence “GTACTACTCCTAGTACAACCTCGCCTACCCGCTGCAACCACGGAGTCACCTAGTGCAG”, the binding signal was 9420 fluorescence intensity (a.u.). Consider “CCACGTGCCATCCCTGCTTTTTTCCACACCGTCCTCAGTACGGAGTCACCTAGTGCAG”, for which the binding signal is 10400 fluorescence intensity (a.u.). To “CTGTGTCCGTCTCCGCTTCTCCTCCTGCCTCCTGCAGTCTCGGAGTCACCTAGTGCAG” belongs 8280 fluorescence intensity (a.u.). Turning to “ATATACTGCATATTTCTGTCGCTTTATCTCGATTAAGAAACGGAGTCACCTAGTGCAG”, the binding signal was 8700 fluorescence intensity (a.u.). Regarding “CATTACTTTTTTGGTGGACTTGCAAAAACATGGGCATTTTCGGAGTCACCTAGTGCAG”, the binding signal is 8680 fluorescence intensity (a.u.). With “ACCATGTAACGAGTAATCTTTTGACCTGTGCCACGTCATCCGGAGTCACCTAGTGCAG”, the binding signal is 9160 fluorescence intensity (a.u.). Consider “GCATCATCTATCTCGATCAAACCGAGTCAACATATGACTACGGAGTCACCTAGTGCAG”, for which the binding signal is 8350 fluorescence intensity (a.u.). Turning to “ATCATGAGTTTTGTTTTAATCTGACCCTTGTTTAAATTTCCGGAGTCACCTAGTGCAG”, the binding signal was 8830 fluorescence intensity (a.u.). Regarding “TGTTGCCCACGTACGTGTTGCCGACGCCGAGGTCGCAGTCCGGAGTCACCTAGTGCAG”, the binding signal was 8770 fluorescence intensity (a.u.). For the sequence “GAGCCCGTACTCATTTCTCGCCAAGTGCACCACTTCACTCCGGAGTCACCTAGTGCAG”, the binding signal is 10700 fluorescence intensity (a.u.). For the sequence “ATCCACTCCCACGTGGGCCCCACACCTGCCGCCGTACCACCGGAGTCACCTAGTGCAG”, the binding signal is 8120 fluorescence intensity (a.u.). To “GCGGCATTGGAGTGGTGGCGAGGGGCGGCGGCTTCGGGTTCGGAGTCACCTAGTGCAG” belongs 8070 fluorescence intensity (a.u.). With “CCGTCCGCCATTGCAGCTTCGTTGTTCTGTACCTTCTTGCCGGAGTCACCTAGTGCAG”, the binding signal was 10900 fluorescence intensity (a.u.).
